Data as given in paper PMC5845016.
No constants are given. Whether binding was seen depends on the method and setting. Binding seen in cells or lysates may run through a third protein. These calls come from enrichment with a bait or labelling near it, and not all partners need be listed.

B1: CPSF1 (protein, UniProt Q10570 1-1443)
chain: MYAVYKQAHPPTGLEFSMYCNFFNNSERNLVVAGTSQLYVYRLNRDAEALTKNDRSTEGKAHREKLELAASFSFFGNVMSMASVQLAGAKRDALLLSFKDAKLSVVEYDPGTHDLKTLSLHYFEEPELRDGFVQNVHTPRVRVDPDGRCAAMLVYGTRLVVLPFRRESLAEEHEGLVGEGQRSSFLPSYIIDVRALDEKLLNIIDLQFLHGYYEPTLLILFEPNQTWPGRVAVRQDTCSIVAISLNITQKVHPVIWSLTSLPFDCTQALAVPKPIGGVVVFAVNSLLYLNQSVPPYGVALNSLTTGTTAFPLRTQEGVRITLDCAQATFISYDKMVISLKGGEIYVLTLITDGMRSVRAFHFDKAAASVLTTSMVTMEPGYLFLGSRLGNSLLLKYTEKLQEPPASAVREAADKEEPPSKKKRVDATAGWSAAGKSVPQDEVDEIEVYGSEAQSGTQLATYSFEVCDSILNIGPCANAAVGEPAFLSEEFQNSPEPDLEIVVCSGHGKNGALSVLQKSIRPQVVTTFELPGCYDMWTVIAPVRKEEEDNPKGEGTEQEPSTTPEADDDGRRHGFLILSREDSTMILQTGQEIMELDTSGFATQGPTVFAGNIGDNRYIVQVSPLGIRLLEGVNQLHFIPVDLGAPIVQCAVADPYVVIMSAEGHVTMFLLKSDSYGGRHHRLALHKPPLHHQSKVITLCLYRDLSGMFTTESRLGGARDELGGRSGPEAEGLGSETSPTVDDEEEMLYGDSGSLFSPSKEEARRSSQPPADRDPAPFRAEPTHWCLLVRENGTMEIYQLPDWRLVFLVKNFPVGQRVLVDSSFGQPTTQGEARREEATRQGELPLVKEVLLVALGSRQSRPYLLVHVDQELLIYEAFPHDSQLGQGNLKVRFKKVPHNINFREKKPKPSKKKAEGGGAEEGAGARGRVARFRYFEDIYGYSGVFICGPSPHWLLVTGRGALRLHPMAIDGPVDSFAPFHNVNCPRGFLYFNRQGELRISVLPAYLSYDAPWPVRKIPLRCTAHYVAYHVESKVYAVATSTNTPCARIPRMTGEEKEFETIERDERYIHPQQEAFSIQLISPVSWEAIPNARIELQEWEHVTCMKTVSLRSEETVSGLKGYVAAGTCLMQGEEVTCRGRILIMDVIEVVPEPGQPLTKNKFKVLYEKEQKGPVTALCHCNGHLVSAIGQKIFLWSLRASELTGMAFIDTQLYIHQMISVKNFILAADVMKSISLLRYQEESKTLSLVSRDAKPLEVYSVDFMVDNAQLGFLVSDRDRNLMVYMYLPEAKESFGGMRLLRRADFHVGAHVNTFWRTPCRGATEGLSKKSVVWENKHITWFATLDGGIGLLLPMQEKTYRRLLMLQNALTTMLPHHAGLNPRAFRMLHVDRRTLQNAVRNVLDGELLNRYLYLSTMERSELAKKIGTTPDIILDDLLETDRVTAHF
B2: SMC1A (protein, UniProt Q14683 1-1233)
chain: MGFLKLIEIENFKSYKGRQIIGPFQRFTAIIGPNGSGKSNLMDAISFVLGEKTSNLRVKTLRDLIHGAPVGKPAANRAFVSMVYSEEGAEDRTFARVIVGGSSEYKINNKVVQLHEYSEELEKLGILIKARNFLVFQGAVESIAMKNPKERTALFEEISRSGELAQEYDKRKKEMVKAEEDTQFNYHRKKNIAAERKEAKQEKEEADRYQRLKDEVVRAQVQLQLFKLYHNEVEIEKLNKELASKNKEIEKDKKRMDKVEDELKEKKKELGKMMREQQQIEKEIKEKDSELNQKRPQYIKAKENTSHKIKKLEAAKKSLQNAQKHYKKRKGDMDELEKEMLSVEKARQEFEERMEEESQSQGRDLTLEENQVKKYHRLKEEASKRAATLAQELEKFNRDQKADQDRLDLEERKKVETEAKIKQKLREIEENQKRIEKLEEYITTSKQSLEEQKKLEGELTEEVEMAKRRIDEINKELNQVMEQLGDARIDRQESSRQQRKAEIMESIKRLYPGSVYGRLIDLCQPTQKKYQIAVTKVLGKNMDAIIVDSEKTGRDCIQYIKEQRGEPETFLPLDYLEVKPTDEKLRELKGAKLVIDVIRYEPPHIKKALQYACGNALVCDNVEDARRIAFGGHQRHKTVALDGTLFQKSGVISGGASDLKAKARRWDEKAVDKLKEKKERLTEELKEQMKAKRKEAELRQVQSQAHGLQMRLKYSQSDLEQTKTRHLALNLQEKSKLESELANFGPRINDIKRIIQSREREMKDLKEKMNQVEDEVFEEFCREIGVRNIREFEEEKVKRQNEIAKKRLEFENQKTRLGIQLDFEKNQLKEDQDKVHMWEQTVKKDENEIEKLKKEEQRHMKIIDETMAQLQDLKNQHLAKKSEVNDKNHEMEEIRKKLGGANKEMTHLQKEVTAIETKLEQKRSDRHNLLQACKMQDIKLPLSKGTMDDISQEEGSSQGEDSVSGSQRISSIYAREALIEIDYGDLCEDLKDAQAEEEIKQEMNTLQQKLNEQQSVLQRIAAPNMKAMEKLESVRDKFQETSDEFEAARKRAKKAKQAFEQIKKERFDRFNACFESVATNIDEIYKALSRNSSAQAFLGPENPEEPYLDGINYNCVAPGKRFRPMDNLSGGEKTVAALALLFAIHSYKPAPFFVLDEIDAALDNTNIGKVANYIKEQSTCNFQAIVISLKEEFYTKAESLIGVYPEQGDCVISKVLTFDLTKYPDANPNPNEQ

Molecular target: 14-3-3 (bait; construct not stated for these experiments)
Experiment: affinity purification with mass spectrometry; SILAC; 14-3-3 pull downs from cells irradiated with UV light against cells pretreated with the p38 inhibitor and then irradiated; 14-3-3 as bait

Binder | binding
B1 | binds
B2 | binds
